Results are given in words; binding and its absence hold for the method and conditions named. Some binding calls cover weakened binding; strength is not graded here.
Legend:
[1] = biological target: T1, Endogenous MEP50 of Xenopus egg extract (Xenopus laevis (endogenous in Xenopus egg extract)) (UniProt Q6NUD0); test: immunodepletion; anti-MEP50 antibodies on protein A sepharose, two rounds of depletion of Xenopus egg extract (HSS); depleted extract blotted for PRMT5, MEP50 and H4; mock: pre-immune serum
T1 sequence: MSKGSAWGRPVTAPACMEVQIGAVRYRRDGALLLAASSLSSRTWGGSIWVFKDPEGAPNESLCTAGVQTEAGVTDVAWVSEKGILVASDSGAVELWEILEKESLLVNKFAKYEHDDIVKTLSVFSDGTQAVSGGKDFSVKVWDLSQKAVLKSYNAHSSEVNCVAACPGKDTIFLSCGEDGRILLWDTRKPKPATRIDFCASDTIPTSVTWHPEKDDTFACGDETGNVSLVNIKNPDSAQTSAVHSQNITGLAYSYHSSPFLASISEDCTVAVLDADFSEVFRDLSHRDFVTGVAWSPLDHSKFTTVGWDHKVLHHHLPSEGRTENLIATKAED

Protein sequences, listed by entry. Tags and fused reporters are not part of them.
UniProt Q6NUA1: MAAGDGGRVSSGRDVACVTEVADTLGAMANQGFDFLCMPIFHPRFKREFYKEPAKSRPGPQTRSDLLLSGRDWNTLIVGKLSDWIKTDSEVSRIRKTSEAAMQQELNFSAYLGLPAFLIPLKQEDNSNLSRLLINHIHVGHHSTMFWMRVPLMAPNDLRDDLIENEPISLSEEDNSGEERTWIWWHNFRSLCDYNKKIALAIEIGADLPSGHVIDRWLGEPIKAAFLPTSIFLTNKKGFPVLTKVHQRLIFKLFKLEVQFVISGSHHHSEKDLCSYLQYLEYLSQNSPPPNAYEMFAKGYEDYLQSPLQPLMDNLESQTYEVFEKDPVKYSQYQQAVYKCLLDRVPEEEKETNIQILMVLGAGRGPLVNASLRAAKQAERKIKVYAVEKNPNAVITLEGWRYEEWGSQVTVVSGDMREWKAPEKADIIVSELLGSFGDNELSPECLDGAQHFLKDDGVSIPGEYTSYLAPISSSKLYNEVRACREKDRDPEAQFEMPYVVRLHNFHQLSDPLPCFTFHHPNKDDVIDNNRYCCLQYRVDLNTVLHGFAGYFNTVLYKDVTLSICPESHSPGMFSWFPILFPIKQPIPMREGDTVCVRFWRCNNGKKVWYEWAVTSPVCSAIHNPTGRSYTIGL
UniProt P05221: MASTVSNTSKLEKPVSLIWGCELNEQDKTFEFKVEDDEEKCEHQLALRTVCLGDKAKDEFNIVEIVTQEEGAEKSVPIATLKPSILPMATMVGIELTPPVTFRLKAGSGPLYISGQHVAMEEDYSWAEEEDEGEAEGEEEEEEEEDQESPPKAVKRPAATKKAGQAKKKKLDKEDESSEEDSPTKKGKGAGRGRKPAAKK

[2] = biological target: T2, Xenopus laevis MEP50 (co-expressed with PRMT5) (Xenopus laevis) (UniProt Q6NUD0); test: negative-stain electron microscopy and 3D reconstruction; PRMT5-MEP50 alone or with Npm at a molar ratio of 1:2; 2% uranyl acetate; class averages and reconstruction, crystal structure fitted; both purified
T2 sequence: T1 sequence

[3] = biological target: Xenopus laevis PRMT5-MEP50 complex (Xenopus laevis) (UniProt Q6NUA1+Q6NUD0); test: as above

Row | binding [1] | binding [2] | binding [3] | Substance
1 | binds | – | – | Endogenous PRMT5 of Xenopus egg extract (from UniProt Q6NUA1 1-633) (enzyme)
2 | – | binds | binds | Recombinant Nucleoplasmin (from UniProt P05221 1-200)

Source: paper PMC3581573
